# Laboratory results published in PubChem BioAssay AID540276 (National Center for Advancing Translational Sciences (NCATS), 2011).
# Out of some 300,000 compounds screened, about 5,400 (1.8%) were called active. Inconclusive results, whose numbers are uncertain, are shown with a selection of clear calls. Calls follow the shape of the full dose curve; tested in HEK293 cells. Where the call is inconclusive, the potency comes from a doubtful curve fit.
# Test: qHTS for inhibitors of binding or entry into cells for Marburg Virus
# Conditions: Marburg virus pseudotyped entry inhibition, cell reporter; series mostly up to 37.8 µM
# Potency is read from the fitted curve at half-maximal effect.
row,Structure (SMILES),Potency
1,O=C(CCc1ccc(S(=O)(=O)N2CCOCC2)cc1)Nc1nc(COc2ccccc2)cs1,active: 20.6 µM
2,CCC/C(=N\NC(=O)CNC(=O)c1ccc(Cl)cc1)c1ccccc1,"inconclusive: 3.55 µM [inhibitor, partial curve, poor fit]"
3,CCOc1cc(-c2cc(-c3ccccc3)nc(N)c2C#N)ccc1O,"inconclusive: 29.1 µM [inhibitor, single point]"
4,O=C(COc1ccc(F)cc1Br)N1CCc2ccccc21,"inconclusive: 3.26 µM [activator, single point]"
5,COC(=O)c1ccc(C2/C(=C(\O)c3cccc(OC)c3)C(=O)C(=O)N2CCCN2CCOCC2)cc1 (stereo unspecified),inactive
6,Cc1ccccc1NC(=O)c1c(C)oc2ccc(O)c(CN3CCCC3)c12,"inconclusive: 25.1 µM [inhibitor, single point]"
7,CCOc1ccc(NCc2nnc(SCC(=O)Nc3cc(C)on3)n2-c2ccc(OC)cc2)cc1,inactive
8,CCN1CCN(c2ccc(S(=O)(=O)N3CCCCC3)cc2NC(=O)c2ccccc2)CC1,inactive
9,O=C(NCc1ccco1)c1ccccc1-c1ccccc1,inactive
10,CCC(=O)Nc1ccc(C)cc1-c1nc2ccccc2n(CC(=O)Nc2ccccc2Cl)c1=O,inactive
11,O=C(NNC(=O)C1CC1)c1ccc(-c2ccccc2)cc1,inactive
12,CCCC(=O)NC1=C(C#N)C2(CCCCC2)Cc2ccccc21,inactive
13,O=C(c1cc(Cl)cc(Cl)c1)N1CCOCC1,inactive
14,CCC1C(=NO)C(CC)C(c2ccccc2)NC1c1ccccc1 (stereo unspecified),"inconclusive: 25.1 µM [inhibitor, single point]"
15,CC(NCCO)C(=O)C12CC3CC(CC(C3)C1)C2 (stereo unspecified),"inconclusive: 18.3 µM [inhibitor, single point]"
16,COc1cc(CCN2C(=O)NC(c3ccccc3)C(C(C)=O)=C2C)cc(OC)c1OC (stereo unspecified),inactive
17,COc1cc(C(=O)Oc2ccccc2/C=N/NC(=O)c2ccc(C)c(Cl)c2)cc(OC)c1OC,"inconclusive: 6.31 µM [inhibitor, partial curve, poor fit]"
18,NC(=O)C1CCN(C(=O)Cc2ccsc2)CC1,"inconclusive: 3.16 µM [inhibitor, partial curve, poor fit]"
19,C=CCOc1c(Cl)cc(CNc2ccc(N(C)C)cc2)cc1OC,"inconclusive: 18.3 µM [inhibitor, partial curve, poor fit]"
20,O=C(c1csc(Nc2ccccc2Cl)n1)N1CCCC1,"inconclusive: 5.01 µM [activator, single point]"
21,O=[S@]1Oc2ccccc2-c2ccccc21,"inconclusive: 0.891 µM [inhibitor, full curve, poor fit]"
22,CCC1(CC)NC(=O)N(CC(=O)OCc2nc3cc(C(=O)OC)ccc3c(=O)[nH]2)C1=O,"inconclusive: 6.31 µM [activator, single point]"
23,COc1ccc(NC(=O)CN(C)C(=O)Cn2c(=O)oc3ccccc32)cc1,inactive

# In another format: results already given
row	Structure (SMILES)	Potency
1	O=C(CCc1ccc(S(=O)(=O)N2CCOCC2)cc1)Nc1nc(COc2ccccc2)cs1	active: 20.6 µM
8	CCN1CCN(c2ccc(S(=O)(=O)N3CCCCC3)cc2NC(=O)c2ccccc2)CC1	inactive
13	O=C(c1cc(Cl)cc(Cl)c1)N1CCOCC1	inactive
21	O=[S@]1Oc2ccccc2-c2ccccc21	inconclusive: 0.891 µM [inhibitor, full curve, poor fit]

# Following part.

row,Structure (SMILES),Potency
1,Cc1cc(C)cc(OCC(=O)OCC(=O)Nc2cc(S(=O)(=O)N3CCOCC3)ccc2Cl)c1,"inconclusive: 35.5 µM [inhibitor, single point]"
2,COc1ccccc1/C=C/C(=O)Nc1cccnc1,inactive
3,O=C(OCC(=O)N1CCC(Cc2ccccc2)CC1)c1ccccc1,inactive
4,Cc1ccc2ncc(C(=O)NCCc3ccc(S(N)(=O)=O)cc3)c(=O)n2c1,inactive
5,Cc1ncc([N+](=O)[O-])n1Cc1ccc(F)cc1,"inconclusive: 5.62 µM [activator, single point]"
6,CN1CCN(C(=O)CSc2nc(-c3cccs3)cc(-c3cccs3)c2C#N)CC1,"inconclusive: 18.3 µM [inhibitor, single point]"
7,COc1ccc(CCNC(=O)COc2ccc(S(=O)(=O)NCC(C)C)cc2Cl)cc1OC,"inconclusive: 12.6 µM [inhibitor, partial curve, poor fit]"
8,O=S(=O)(/N=C(\Sc1ccccc1)c1ccccc1)c1ccc(Cl)cc1,"inconclusive: 0.0046 µM [inhibitor, full curve, poor fit]"
9,CCn1nnc(NC(=O)c2sc3ccccc3c2Cl)n1,"inconclusive: 22.4 µM [inhibitor, partial curve, poor fit]"
10,O=C1NC(=Nc2ccccc2)S/C1=C\c1cccn1-c1ccccc1,"inconclusive: 4.47 µM [inhibitor, full curve]"
11,Cc1cc(/C=C2/C(=O)N(C)C(=S)N2C)ccc1N1CCCC1,"inconclusive: 4.47 µM [activator, single point]"
12,O=C(Nc1cc(C(F)(F)F)ccc1F)C1CCCC1,inactive
13,COc1ccc(-n2c(SCCNCCO)nc3sc4c(c3c2=O)CCCC4)cc1,"inconclusive: 11.2 µM [inhibitor, partial curve, poor fit]"
14,CN(Cc1ccccc1)C(=O)C1CCCN(Cc2ccc(Cl)cc2)C1 (stereo unspecified),"inconclusive: 35.5 µM [inhibitor, single point]"
15,COc1ccccc1N1CCN(C(=O)c2ccc(CSc3ccccc3)cc2)CC1,"inconclusive: 17.8 µM [activator, single point]"
16,O=C(COc1ccc2ccccc2c1)Nc1cccc(C(=O)Nc2ccccc2C(=O)O)c1,inactive
17,CN(C)CCOC(=O)C1=CC2=C3CSCCC3=NC2C=C1 (stereo unspecified),"inconclusive: 35.5 µM [inhibitor, single point]"
18,COc1ccc(CN2CCNC(=O)C2CC(=O)NCCCn2cccn2)c(OC)c1 (stereo unspecified),"inconclusive: 5.62 µM [activator, single point]"
19,COc1cc(C2c3c(oc4ccc(F)cc4c3=O)C(=O)N2c2nc(C)c(C)s2)cc(OC)c1OC (stereo unspecified),"inconclusive: 3.98 µM [activator, single point]"
20,COc1cccc(C(=O)NCCCNC(=O)c2cccc(OC)c2)c1,inactive
21,CCOc1cccc(CN2CCC(n3nccc3NC(=O)C3CCCC3)CC2)c1,"inconclusive: 10 µM [inhibitor, partial curve, poor fit]"
22,CCOc1ccc(NC(=O)CSc2nc3c(c(=O)[nH]2)CCCC3)cc1,inactive
23,CC(=O)Nc1ccc(S(=O)(=O)N(C)CCOCc2ccccc2)cc1,"inconclusive: 12.6 µM [inhibitor, partial curve, poor fit]"
